Data reported in publication PMC11164484.
Results are given in words; binding and its absence hold for the method and conditions named. Binding seen in cells or lysates may run through a third protein. Some entries that bind do so weakly or less than the wild type.

Biological target: ferritin heavy chain 1 (FTH1) (human (endogenous in BMSCs)) (UniProt P02794)
Test: co-IP; co-IP in BMSCs with CRYAB antibody or FTH1 antibody for immunoprecipitation, Western blot detection

- binding: binds
B1: Crystallin Alpha B (CRYAB) (protein, UniProt P02511 1-175)
chain: MDIAIHHPWIRRPFFPFHSPSRLFDQFFGEHLLESDLFPTSTSLSPFYLRPPSFLRAPSWFDTGLSEMRLEKDRFSVNLDVKHFSPEELKVKVLGDVIEVHGKHEERQDEHGFISREFHRKYRIPADVDPLTITSSLSSDGVLTVNGPRKQVSGPERTIPITREEKPAVTAAPKK
